Measurements taken from patent publication US12583851B2, “Heteroaryl-substituted pyrazine derivatives as pesticides” (Elanco Animal Health GmbH, priority 2019, dated 2026).
At least one read-out could not be matched to a standard name with certainty.

Test system: adult brown dog ticks (Rhipicephalus sanguineus)
Test: Rhipicephalus sanguineus in-vitro contact test, adult brown dog ticks
Format: in vivo
Settings: 1 μg/cm^2 (=100 g/ha), after 48 hours
Experimental: Rhipicephalus sanguineus—In-Vitro Contact Tests with Adult Brown Dog Ticks
9 mg compound is solved in 1 mL acetone and diluted with acetone to the desired concentration. […] the test solution is filled in 25 mL glass test tubes and homogeneously distributed on the inner walls by rotation and tilting on a shaking device (2 h at 30 rpm). With a compound concentration of 900 ppm, an inner surface of 44.7 cm^2 and a homogeneous distribution, a dose of 5 μg/cm^2 is achieved.
After the solvent has evaporated, each test tube is filled with 5-10 adult brown dog ticks (Rhipicephalus sanguineus), closed with a perforated lid and incubated in a lying position at room temperature and relative humidity. After 48 hours efficacy is determined. The ticks are patted on the ground of the tubes and are incubated on a heating plate at 45-50° C. for at most 5 minutes Immotile or uncoordinated moving ticks, which are not able to escape the heat by climbing upwards, are marked as dead or moribund.
An efficacy of 100% means all ticks are dead or moribund; 0% means no ticks are dead or moribund.

Compound: CC(NC(=O)c1cc(Cl)cc(C(F)(F)F)c1)c1nccnc1-n1cc(C(=O)N(C)CC2CC2)cn1 (racemic) [Example I-132, (rac)-1-(3-{1-[3-Chloro-5-(trifluoromethyl)benzamido]ethyl}pyrazin-2-yl)-N-(cyclopropylmethyl)-N-methyl-1H-pyrazole-4-carboxamide]
- efficacy (ticks dead or moribund): 80%
